pIC50: −log10 of the molar value. Some entries share one result that the patent states for a list of compounds.
Biological target: T1, 1b (BK) NS5BΔ21 (Hepatitis C virus genotype 1b, UniProt P26663)
T1 construct: 100 nM 1b (BK) NS5BΔ21
Assay: HCV polymerase inhibition assay
Type: biochemical
Conditions: read-out: 1b polymerase IC50; 100 nM 1b (BK) NS5BΔ21, Poly(rC) template, 33P-GTP incorporation
Procedure: HCV polymerase reactions were carried out using a modified method of Howe et al., Antimicrobial Agents and Chemotherapy 2004 48(12): 4813-4821. Reactions contained a final concentration of, 0.5% DMSO, 100 nM 1b (BK) NS5BΔ21, 20 mM Tris-HCl pH 7.5, 5 mM MgCl2, 5 mM MnCl2, 3 mM DTT, 0.05% BSA, 0.2 U/μL RNasin, 10 μg/mL Poly(rC) template, GTP (at Km) and 0.05 μCi/μL ^33P-GTP in a total reaction volume of 50 μL. Compounds were tested in a three fold dilution series, for example starting from 50 μM. Reactions were initiated with the addition of GTP and terminated after […] with 50 μL ice cold 0.2 M EDTA. Terminated reactions were transferred to DEAE 96-well filter plates, unincorporated nucleotides washed from the filters and 50 μL scintillation fluid added prior to reading on a scintillation counter. The compound concentration that reduced ^33P-GTP incorporation by 50% (IC50) was calculated using non-linear regression.

By UniProt entry, the sequences of proteins in these tests, tags left out. Residues count along the entry.
UniProt P26663, 2420-2989, stated change not applied: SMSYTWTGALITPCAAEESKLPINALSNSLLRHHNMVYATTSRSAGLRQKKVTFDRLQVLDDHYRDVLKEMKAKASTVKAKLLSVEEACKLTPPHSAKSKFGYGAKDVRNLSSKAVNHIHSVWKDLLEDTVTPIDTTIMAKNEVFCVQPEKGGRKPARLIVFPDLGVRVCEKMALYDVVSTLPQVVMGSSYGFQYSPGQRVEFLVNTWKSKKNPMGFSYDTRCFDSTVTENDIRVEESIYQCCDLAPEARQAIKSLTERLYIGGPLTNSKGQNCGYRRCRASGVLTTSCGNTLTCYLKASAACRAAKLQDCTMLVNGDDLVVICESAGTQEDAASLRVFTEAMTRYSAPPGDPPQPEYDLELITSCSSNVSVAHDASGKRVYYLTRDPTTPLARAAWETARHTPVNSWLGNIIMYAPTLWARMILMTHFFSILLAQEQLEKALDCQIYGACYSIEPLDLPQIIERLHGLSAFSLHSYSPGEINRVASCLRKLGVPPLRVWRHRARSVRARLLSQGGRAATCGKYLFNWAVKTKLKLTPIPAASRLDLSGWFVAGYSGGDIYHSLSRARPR

CNC(=O)c1c2cc(C3CC3)c(N(CCC3COC3C)S(C)(=O)=O)cc2nn1-c1ccc(Cl)cc1 (stereo not shown) [Compound 9, 2-(4-Chlorophenyl)-5-cyclopropyl-N-methyl-6-[{2[-2-methyloxetan-3-yl]ethyl}(methylsulfonyl)amino]-2H-indazole-3-carboxamide]
pIC50: 6.31 to 7.00

— US9120775B2, “Viral polymerase inhibitors” (Biota Scientific Management Pty Ltd, priority 2012, dated 2015)
